Assay results as given in PMC10254187.
Read-outs that look alike come from different tables or passages of the source. These are yes or no findings as the source states them, for the method shown. Binding seen in cells or lysates may run through a third protein. Here binding means that the protein was enriched with, or labelled near, the bait; the list need not be complete.

By UniProt entry, the sequences of proteins in these tests, tags left out. Residues count along the entry.
UniProt Q9Y4K0, residues 26-774: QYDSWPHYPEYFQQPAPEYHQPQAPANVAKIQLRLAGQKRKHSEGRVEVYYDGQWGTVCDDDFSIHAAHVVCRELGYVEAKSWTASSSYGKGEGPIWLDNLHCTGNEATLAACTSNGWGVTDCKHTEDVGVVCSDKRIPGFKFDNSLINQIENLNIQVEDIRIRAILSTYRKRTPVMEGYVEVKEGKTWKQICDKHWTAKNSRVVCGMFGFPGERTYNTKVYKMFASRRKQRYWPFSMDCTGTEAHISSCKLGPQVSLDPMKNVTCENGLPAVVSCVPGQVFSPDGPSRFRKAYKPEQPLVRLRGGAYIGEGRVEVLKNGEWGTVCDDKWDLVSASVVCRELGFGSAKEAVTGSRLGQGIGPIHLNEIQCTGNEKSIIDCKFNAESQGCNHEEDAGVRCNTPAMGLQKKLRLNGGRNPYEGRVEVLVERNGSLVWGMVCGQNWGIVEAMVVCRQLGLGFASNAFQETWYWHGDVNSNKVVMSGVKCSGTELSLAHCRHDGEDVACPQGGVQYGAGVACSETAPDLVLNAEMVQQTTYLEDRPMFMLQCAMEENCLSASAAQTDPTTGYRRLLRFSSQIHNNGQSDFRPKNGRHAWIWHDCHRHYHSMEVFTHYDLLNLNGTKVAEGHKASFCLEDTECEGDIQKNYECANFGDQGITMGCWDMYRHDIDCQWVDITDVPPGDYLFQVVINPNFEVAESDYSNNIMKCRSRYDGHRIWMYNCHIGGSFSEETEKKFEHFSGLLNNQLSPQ
UniProt Q86U44: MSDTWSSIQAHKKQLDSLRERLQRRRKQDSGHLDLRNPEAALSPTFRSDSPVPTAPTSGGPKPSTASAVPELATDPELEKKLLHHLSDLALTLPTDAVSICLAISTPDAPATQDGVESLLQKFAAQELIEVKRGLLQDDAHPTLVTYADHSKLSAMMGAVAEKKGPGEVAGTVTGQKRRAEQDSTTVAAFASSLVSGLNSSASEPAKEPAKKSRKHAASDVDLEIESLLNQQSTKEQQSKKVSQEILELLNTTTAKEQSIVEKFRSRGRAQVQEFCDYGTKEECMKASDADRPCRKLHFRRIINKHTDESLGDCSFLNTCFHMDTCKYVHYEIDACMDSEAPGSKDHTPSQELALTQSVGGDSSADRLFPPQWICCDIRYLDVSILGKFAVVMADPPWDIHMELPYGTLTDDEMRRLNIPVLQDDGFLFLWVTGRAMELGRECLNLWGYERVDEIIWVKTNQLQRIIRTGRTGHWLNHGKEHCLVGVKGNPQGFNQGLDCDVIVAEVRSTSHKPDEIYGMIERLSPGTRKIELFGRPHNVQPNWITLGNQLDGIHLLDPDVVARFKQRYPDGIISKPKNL
UniProt O00571: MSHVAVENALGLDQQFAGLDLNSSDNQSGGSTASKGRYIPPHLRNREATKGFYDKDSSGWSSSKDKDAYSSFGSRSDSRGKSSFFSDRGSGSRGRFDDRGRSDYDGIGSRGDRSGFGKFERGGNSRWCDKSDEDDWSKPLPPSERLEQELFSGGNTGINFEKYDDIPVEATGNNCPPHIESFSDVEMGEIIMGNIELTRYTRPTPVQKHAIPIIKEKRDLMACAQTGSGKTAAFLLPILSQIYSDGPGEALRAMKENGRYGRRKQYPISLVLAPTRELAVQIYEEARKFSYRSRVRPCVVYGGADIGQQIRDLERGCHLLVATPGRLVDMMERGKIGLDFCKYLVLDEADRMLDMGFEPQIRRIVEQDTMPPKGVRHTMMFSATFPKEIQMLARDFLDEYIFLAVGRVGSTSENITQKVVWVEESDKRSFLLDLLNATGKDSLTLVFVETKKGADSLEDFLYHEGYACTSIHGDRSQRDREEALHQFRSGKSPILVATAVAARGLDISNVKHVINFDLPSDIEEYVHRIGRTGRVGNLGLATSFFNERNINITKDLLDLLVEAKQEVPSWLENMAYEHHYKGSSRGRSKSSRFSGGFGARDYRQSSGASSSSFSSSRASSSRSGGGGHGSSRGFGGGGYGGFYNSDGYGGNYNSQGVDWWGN
UniProt Q15717: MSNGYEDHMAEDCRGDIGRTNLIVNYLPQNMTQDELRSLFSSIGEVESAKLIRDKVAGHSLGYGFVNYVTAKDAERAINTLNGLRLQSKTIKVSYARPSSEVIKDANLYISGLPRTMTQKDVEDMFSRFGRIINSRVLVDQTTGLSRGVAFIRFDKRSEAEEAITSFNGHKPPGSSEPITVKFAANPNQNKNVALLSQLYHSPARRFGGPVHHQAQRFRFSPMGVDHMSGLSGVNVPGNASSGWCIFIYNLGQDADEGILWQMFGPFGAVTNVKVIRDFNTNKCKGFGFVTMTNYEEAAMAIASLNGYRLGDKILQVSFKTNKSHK
UniProt Q07955: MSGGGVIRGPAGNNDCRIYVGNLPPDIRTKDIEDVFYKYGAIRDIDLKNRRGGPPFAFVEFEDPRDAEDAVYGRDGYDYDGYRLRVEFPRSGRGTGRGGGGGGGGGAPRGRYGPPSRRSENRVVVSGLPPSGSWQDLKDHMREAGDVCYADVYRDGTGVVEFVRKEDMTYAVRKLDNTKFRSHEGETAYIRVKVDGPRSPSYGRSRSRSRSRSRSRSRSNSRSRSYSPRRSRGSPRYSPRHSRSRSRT
UniProt P11021, residues 19-654: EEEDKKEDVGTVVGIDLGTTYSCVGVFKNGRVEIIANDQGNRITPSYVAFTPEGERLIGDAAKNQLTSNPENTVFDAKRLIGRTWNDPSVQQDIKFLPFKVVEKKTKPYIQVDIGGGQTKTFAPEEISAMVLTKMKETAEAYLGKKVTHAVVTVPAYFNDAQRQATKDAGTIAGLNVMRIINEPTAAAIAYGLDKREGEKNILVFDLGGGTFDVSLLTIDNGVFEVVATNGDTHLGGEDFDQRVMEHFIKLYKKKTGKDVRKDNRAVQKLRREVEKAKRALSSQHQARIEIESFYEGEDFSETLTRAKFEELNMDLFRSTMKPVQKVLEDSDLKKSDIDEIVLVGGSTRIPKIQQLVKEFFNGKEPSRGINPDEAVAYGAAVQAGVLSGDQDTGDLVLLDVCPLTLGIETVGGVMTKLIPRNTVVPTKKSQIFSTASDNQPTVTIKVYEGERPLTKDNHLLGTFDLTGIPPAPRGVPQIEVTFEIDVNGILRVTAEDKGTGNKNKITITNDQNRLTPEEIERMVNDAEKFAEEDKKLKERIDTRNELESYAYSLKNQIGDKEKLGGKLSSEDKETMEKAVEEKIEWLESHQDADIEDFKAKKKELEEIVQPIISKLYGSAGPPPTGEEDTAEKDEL

B1: MATRIN3 (protein, UniProt P43243 1-847)
chain: MSKSFQQSSLSRDSQGHGRDLSAAGIGLLAAATQSLSMPASLGRMNQGTARLASLMNLGMSSSLNQQGAHSALSSASTSSHNLQSIFNIGSRGPLPLSSQHRGDADQASNILASFGLSARDLDELSRYPEDKITPENLPQILLQLKRRRTEEGPTLSYGRDGRSATREPPYRVPRDDWEEKRHFRRDSFDDRGPSLNPVLDYDHGSRSQESGYYDRMDYEDDRLRDGERCRDDSFFGETSHNYHKFDSEYERMGRGPGPLQERSLFEKKRGAPPSSNIEDFHGLLPKGYPHLCSICDLPVHSNKEWSQHINGASHSRRCQLLLEIYPEWNPDNDTGHTMGDPFMLQQSTNPAPGILGPPPPSFHLGGPAVGPRGNLGAGNGNLQGPRHMQKGRVETSRVVHIMDFQRGKNLRYQLLQLVEPFGVISNHLILNKINEAFIEMATTEDAQAAVDYYTTTPALVFGKPVRVHLSQKYKRIKKPEGKPDQKFDQKQELGRVIHLSNLPHSGYSDSAVLKLAEPYGKIKNYILMRMKSQAFIEMETREDAMAMVDHCLKKALWFQGRCVKVDLSEKYKKLVLRIPNRGIDLLKKDKSRKRSYSPDGKESPSDKKSKTDGSQKTESSTEGKEQEEKSGEDGEKDTKDDQTEQEPNMLLESEDELLVDEEEAAALLESGSSVGDETDLANLGDVASDGKKEPSDKAVKKDGSASAAAKKKLKKVDKIEELDQENEAALENGIKNEENTEPGAESSENADDPNKDTSENADGQSDENKDDYTIPDEYRIGPYQPNVPVGIDYVIPKTGFYCKLCSLFYTNEEVAKNTHCSSLPHYQKLKKFLNKLAEERRQKKET
B2: HNRNPM (protein, UniProt P52272 1-730)
chain: MAAGVEAAAEVAATEIKMEEESGAPGVPSGNGAPGPKGEGERPAQNEKRKEKNIKRGGNRFEPYANPTKRYRAFITNIPFDVKWQSLKDLVKEKVGEVTYVELLMDAEGKSRGCAVVEFKMEESMKKAAEVLNKHSLSGRPLKVKEDPDGEHARRAMQKVMATTGGMGMGPGGPGMITIPPSILNNPNIPNEIIHALQAGRLGSTVFVANLDYKVGWKKLKEVFSMAGVVVRADILEDKDGKSRGIGTVTFEQSIEAVQAISMFNGQLLFDRPMHVKMDERALPKGDFFPPERPQQLPHGLGGIGMGLGPGGQPIDANHLNKGIGMGNIGPAGMGMEGIGFGINKMGGMEGPFGGGMENMGRFGSGMNMGRINEILSNALKRGEIIAKQGGGGGGGSVPGIERMGPGIDRLGGAGMERMGAGLGHGMDRVGSEIERMGLVMDRMGSVERMGSGIERMGPLGLDHMASSIERMGQTMERIGSGVERMGAGMGFGLERMAAPIDRVGQTIERMGSGVERMGPAIERMGLSMERMVPAGMGAGLERMGPVMDRMATGLERMGANNLERMGLERMGANSLERMGLERMGANSLERMGPAMGPALGAGIERMGLAMGGGGGASFDRAIEMERGNFGGSFAGSFGGAGGHAPGVARKACQIFVRNLPFDFTWKMLKDKFNECGHVLYADIKMENGKSKGCGVVKFESPEVAERACRMMNGMKLSGREIDVRIDRNA

Legend:
[1] = target: flag-tagged LOXL2 (lysyl oxidase-like 2) (human) (UniProt Q9Y4K0); experiment: affinity purification with mass spectrometry; anti-Flag antibody on Dynabeads Protein G, overnight at 4 °C, from nuclear-enriched extracts (400 mM NaCl extraction) of HEK293T cells transfected with pcDNA3-Flag-LOXL2; two independent immunoprecipitates; hits of the empty flag vector subtracted; LC-MS/MS
[2] = target: flag-tagged LOXL2 (lysyl oxidase-like 2) (human) (UniProt Q9Y4K0); experiment: as above; remark: listed apart in the source

Molecule	binding [1]	binding [2]
METTL3 (from UniProt Q86U44 1-580)	binds	–
DDX3X (from UniProt O00571 1-662)	binds	–
ELAVL1 (ELAV-like RNA-binding protein 1) (from UniProt Q15717 1-326)	binds	–
SRSF1 (RNA-binding protein serine/arginine splicing factor 1) (from UniProt Q07955 1-248)	binds	–
HSPA5 (from UniProt P11021 19-654)	binds	–
B1	–	binds
B2	–	binds
